Laboratory results reported in patent US6709814B1 (Rigel Pharmaceuticals, Inc., priority 1998, dated 2004).

Assay: general procedure: Fmoc solid-phase peptide synthesis; Pre-loaded Fmoc-Xaa-Wang-resins; H-Pro-2-Cl-Trt-resin for C-terminal Pro peptides (Novabiochem); DIC/HOBt; HBTU/HOBt in difficult situations
Details: whole synthesis

For EFLIVKSSTKSIPPQSEFLIVKS, the “final LC-MS purity” value was “over 99% pure”.

Ends that are not written are not given here.
